No constants are given. Whether binding was seen depends on the method and setting. Binding seen in cells or lysates may run through a third protein. Some entries that bind do so weakly or less than the wild type.
Experiments:
[1] = biological target: PD-1-HA (HA-tagged PD-1 expressed in 293T cells) (human) (UniProt Q15116); experiment: co-immunoprecipitation from 293T lysates (FIG. 2C)
[2] = biological target: PD-1-HA (HA-tagged PD-1 expressed in 293T cells) (human) (UniProt Q15116); experiment: reciprocal co-immunoprecipitation from 293T lysates
[3] = biological target: Recombinant human PD-1-Ig (extracellular region of PD-1 fused with the immunoglobulin G Fc segment) (human) (UniProt Q15116); experiment: Ig pull-down with purified proteins (FIG. 2D)
[4] = biological target: Recombinant human PD-1-Ig (extracellular region of PD-1 fused with the immunoglobulin G Fc segment) (human) (UniProt Q15116); experiment: Ig pull-down with purified proteins, anti-His blot
[5] = biological target: PD-1-HA (HA-tagged PD-1 expressed in 293T cells) (human) (UniProt Q15116); experiment: Ig pull-down from lysates of transfected 293T cells, immunoblot
[6] = biological target: PD-1-HA (HA-tagged PD-1 expressed in 293T cells) (human) (UniProt Q15116); experiment: Ig pull-down from lysates of transfected 293T cells, immunoblot (FIG. 2B)

Sequences of proteins named here, by UniProt entry; tags and fusion partners are left off. A change or cut given only in a name is not applied to a line headed by its entry.
UniProt Q15116: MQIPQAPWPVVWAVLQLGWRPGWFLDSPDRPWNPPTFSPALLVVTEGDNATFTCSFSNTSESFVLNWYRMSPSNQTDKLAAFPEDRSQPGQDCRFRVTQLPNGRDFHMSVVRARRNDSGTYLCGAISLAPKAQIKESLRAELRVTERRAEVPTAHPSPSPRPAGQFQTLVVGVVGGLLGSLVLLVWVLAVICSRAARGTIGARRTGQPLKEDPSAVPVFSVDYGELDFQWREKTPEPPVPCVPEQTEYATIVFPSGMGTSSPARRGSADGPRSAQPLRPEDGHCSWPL
UniProt Q9H7M9: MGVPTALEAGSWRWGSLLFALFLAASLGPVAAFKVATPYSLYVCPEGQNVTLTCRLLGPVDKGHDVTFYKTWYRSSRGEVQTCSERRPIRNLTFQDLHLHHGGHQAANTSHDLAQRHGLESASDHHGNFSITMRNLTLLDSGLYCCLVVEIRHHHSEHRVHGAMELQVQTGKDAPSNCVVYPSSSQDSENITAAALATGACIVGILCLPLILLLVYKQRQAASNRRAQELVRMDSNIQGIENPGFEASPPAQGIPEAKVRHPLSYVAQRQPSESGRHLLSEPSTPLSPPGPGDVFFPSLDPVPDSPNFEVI

In the case of “DD1α-Myc (Myc-tagged DD1α expressed in 293T cells) (from UniProt Q9H7M9 33-311) (receptor)”, the binding [1] is reported as “binds” and the binding [2] is reported as “binds”.
In the case of “6×His-DD1α 33-194 (from UniProt Q9H7M9 33-194) (receptor)”, the binding [3] is reported as “binds” and the binding [4] is reported as “binds”.
In the case of “DD1α-Ig (extracellular region of DD1α fused with the immunoglobulin G Fc segment) (from UniProt Q9H7M9 33-194) (Fc fusion)”, the binding [5] is reported as “binds” and the binding [6] is reported as “binds”.
